This is one part of the list. Shown are side measurements of this screen, not its main read-out; they come without a call. The list favours compounds with an active or inconclusive main result. Words in brackets tell the shape of the fitted curve; partial curves, single points and poor fits give uncertain potencies.
Experiment: qHTS Assay for Lipid Storage Modulators in Drosophila S3 Cells;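 for cell number change: cells counted by Cell Tracker Red CMTPX staining in the red channel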
Conditions: BODIPY lipid droplet fluorescence, 18-24 h; for cell number change: measured here: cell count max response, cells fed with added oleic acid
Summary of the method: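 Laser-scanning cytometry quantifies lipid droplet accumulation (500–530 nm total intensity; droplet/cell object ratio) in oleic acid-fed (400 uM added) Drosophila S3 cells treated with a concentration series. 20 uM Triacsin C defined 100% inhibition.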

[1] = measured here: lipid fluorescence (Fed channel) AC50, cells fed with added oleic acid
[2] = measured here: cell number channel AC50, cells fed with added oleic acid

Row | Structure (SMILES) | cell number change | AC50 [1] | AC50 [2]
1 | COc1ccc(S(=O)(=O)N2CCCC(C(=O)NCc3ccco3)C2)cc1Cl (stereo unspecified) | -1.55% | 0.00651 µM [falling, full curve, poor fit] | –
2 | CC1CCN(S(=O)(=O)c2ccc3c(ccn3CCC(=O)NC(C)C)c2)CC1 | -8.75% | 2.31 µM [rising, single point] | –
3 | Cc1cc(C)nc(-n2ncc3c2CC(c2ccccc2)CC3=O)n1 (stereo unspecified) | -6.03% | 8.2 µM [falling, partial curve, poor fit] | –
4 | C=CCNC(=O)C1CC(=O)N(c2ccc(OCC(=O)Nc3ccc(Cl)c(C(F)(F)F)c3)cc2)C1 (stereo unspecified) | 17.3% | 0.0326 µM [rising, full curve, poor fit] | –
5 | Cc1cc(C)c(C)c(S(=O)(=O)NCC(=O)O)c1C | -17.4% | 0.82 µM [falling, full curve] | –
6 | N#CCSc1ccsc1C(=O)Nc1ccc(F)cc1 | 64.9% | 1.46 µM [rising, full curve] | 3.66 µM [rising, full curve]
7 | CC1CCN(C(=O)C2CCN(S(=O)(=O)c3cccc4cccnc34)CC2)CC1 | -34.3% | – | 20.6 µM [falling, single point]
8 | COc1ccccc1-n1nnnc1SCC(=O)Nc1ccccc1 | 37.1% | 6.51 µM [rising, partial curve, poor fit] | 29.1 µM [rising, single point]
9 | O=C(Nc1ccc(C(=O)N2CCCCC2)cc1)Nc1cccc(Cl)c1 | – | 16.4 µM [falling, single point] | –
10 | CC(C)[C@H](NC(=O)OCc1ccccc1)C(=O)OCc1cc(=O)oc2cc(O)ccc12 | -26.7% | 6.51 µM [falling, single point] | –
11 | COC(=O)c1cc(C)[nH]c2c(C)cc3nc4ccccc4c3c12 | -38.1% | 16.4 µM [falling, single point] | 14.6 µM [falling, single point]
12 | O=C(CSc1nc(Cc2ccccc2)nc2ccccc12)Nc1ccc2c(c1)OCCO2 | -20.3% | 1.46 µM [rising, partial curve] | –
13 | NC(=O)CC(NC(=O)Cc1ccc(Br)cc1)c1ccc(N2CCc3ccccc3C2)c([N+](=O)[O-])c1 (stereo unspecified) | -42.2% | 18.4 µM [falling, partial curve] | 29.1 µM [falling, single point]
14 | CCC(C)[C@H](NC(=O)NCCC1=CCCCC1)C(=O)OC (stereo partly specified) | 8.43% | – | –
15 | COCCn1c(SCC(=O)Nc2cccnc2Cl)nc2cc(Cl)ccc2c1=O | 6.43% | 18.4 µM [falling, partial curve] | –
16 | Cc1nn(-c2ccc(F)cc2)c2sc(C(=O)OC3CCOC3=O)cc12 (stereo unspecified) | 33.5% | 29.1 µM [rising, single point] | 29.1 µM [rising, single point]
17 | COc1ccccc1CC(NC(C)=O)C(=O)NC1CCN(C(=O)NCc2ccccc2)CC1 (stereo unspecified) | 10.5% | – | –
18 | Cc1csc(NC(=O)c2ccccc2C(=O)O)n1 | 2.9% | 16.4 µM [falling, partial curve] | –
19 | C=CCN=c1scc(-c2ccc3c(c2)NC(=O)CO3)n1/N=C(\C)c1ccccn1 | -8.3% | 11.6 µM [falling, partial curve, poor fit] | –
20 | COC(=O)c1ccc(NC(=O)Cn2nnc3ccccc32)cc1 | 95% | 23.1 µM [rising, partial curve] | 25.9 µM [rising, partial curve]

Entries listed so far that contain a thiophene ring, fused or not, in the order listed:
Row | Structure (SMILES) | cell number change | AC50 [1] | AC50 [2]
6 | N#CCSc1ccsc1C(=O)Nc1ccc(F)cc1 | 64.9% | 1.46 µM [rising, full curve] | 3.66 µM [rising, full curve]
16 | Cc1nn(-c2ccc(F)cc2)c2sc(C(=O)OC3CCOC3=O)cc12 (stereo unspecified) | 33.5% | 29.1 µM [rising, single point] | 29.1 µM [rising, single point]

Going on with the list.

Row | Structure (SMILES) | cell number change | AC50 [1] | AC50 [2]
21 | Cc1[nH]c2ccc(C(=O)N3CCN(c4ccc(F)cc4)CC3)cc2c1C | 6.11% | 0.116 µM [rising, full curve] | –
22 | O=C(Nc1nc2ccc(Cl)cc2s1)c1cccc(N2C(=O)CCC2=O)c1 | -19.3% | 1.84 µM [falling, full curve, poor fit] | –
23 | Cn1c(=O)cc(OCC(=O)NCCCN2CCN(c3ccccc3F)CC2)c2ccccc21 | 8.49% | 6.51 µM [rising, single point] | –
24 | CNc1cnn(-c2ccc(C)cc2)c(=O)c1Sc1ccc(C)cc1 | -37% | 1.46 µM [falling, full curve, poor fit] | –
25 | CCCCOC(=O)c1ccc(NC(=O)c2nn(C)cc2Br)cc1 | -3.5% | 20.6 µM [falling, single point] | –
26 | Cc1cccc2c1N(CCOc1ccc(C(C)(C)C)cc1)C(=O)C2=O | -66.9% | 23.1 µM [falling, single point] | 23.1 µM [falling, partial curve, poor fit]
27 | O=C(N/N=C/c1c(O)n(Cc2ccco2)c(=O)[nH]c1=O)c1ccccc1 | 14% | 0.00461 µM [falling, full curve, poor fit] | –
28 | Cc1[nH]c2ccccc2c1C(c1ccccn1)c1c(C)[nH]c2ccccc12 | -40.8% | – | 29.1 µM [falling, single point]
29 | CC(C)(C)C1CCC(C(=O)Nc2ccc(N3CCOCC3)cc2N2CCOCC2)CC1 (stereo unspecified) | – | 4.61 µM [falling, partial curve, poor fit] | –
30 | CCN(Cc1cc2ccccc2[nH]c1=O)C(=O)c1cccc([N+](=O)[O-])c1 | 13.9% | 1.64 µM [rising, full curve, poor fit] | –
31 | CCN(CC)S(=O)(=O)c1ccc(N2CCCC2)c(C(=O)OCC(=O)N2CCCC2)c1 | -1.2% | 29.1 µM [rising, single point] | –
32 | COC(=O)CSC1=C(C#N)C(c2ccccc2OC)C(C(=O)OC)C(=O)N1 (stereo unspecified) | 0.916% | 0.731 µM [falling, single point] | –
33 | N/C(=N\OC(=O)Cc1ccccc1)c1ccc(Br)cc1 | 25.5% | 10.3 µM [rising, partial curve] | –
34 | Cc1ccc(C)c(S(=O)(=O)N2CCNCC2)c1 | -24.6% | 16.4 µM [falling, partial curve] | –
35 | CC1CSC(N(C(=O)c2ccc(S(C)(=O)=O)cc2)c2ccc(Cl)cc2)=N1 (stereo unspecified) | -4.32% | – | –
36 | O=C(Nc1ccc(F)cc1)c1sc(Cl)nc1-c1ccccc1 | 18.7% | – | –
37 | COc1cc(Nc2nnc(C)s2)c(Cl)cc1Cl | -11.7% | 3.66 µM [falling, partial curve] | –
38 | CS(=O)(=O)N(CC(=O)N1CCOCC1)Cc1ccccc1 | -32.2% | 18.4 µM [falling, partial curve] | 29.1 µM [falling, single point]
39 | CSCCC(NC(=O)c1ccccc1)C(=O)Nc1ccncc1 (stereo unspecified) | 42.6% | 23.1 µM [rising, single point] | 7.31 µM [rising, partial curve]
40 | CCOc1cccc2c1OC(c1cc(OC)c(OC)c(OC)c1)N1N=C(c3ccc(C)o3)CC21 (stereo unspecified) | -12.6% | 25.9 µM [falling, single point] | –

Row | Structure (SMILES) | cell number change | AC50 [1] | AC50 [2]
41 | CCC(=O)NCCc1cc2ccc(C)cc2[nH]c1=O | – | 0.58 µM [rising, single point] | –
42 | COCCNC(=O)c1c(NC(=O)c2nc(SC)ncc2Cl)sc2c1CCCC2 | -74% | – | 23.1 µM [falling, single point]
43 | O=C(NC1CCCC1)C(c1ccncc1)N(C(=O)c1csnn1)c1ccc(Cl)cc1 (stereo unspecified) | -6.31% | – | –
44 | CCOc1ccc(CN(C)C(=O)c2cc3ccccc3o2)cc1OC | -5.71% | 6.51 µM [rising, single point] | –
45 | COc1cc(NC(=O)c2cc(S(=O)(=O)N3CCc4ccccc43)cn2C)cc(OC)c1OC | 31.4% | – | 16.4 µM [rising, single point]
46 | COc1ccc(S(=O)(=O)N2CCn3c2nc2ccccc23)cc1 | 22.5% | 9.2 µM [rising, partial curve] | 4.11 µM [rising, single point]
47 | Cc1ccc(SCC(=O)N2CCCC2)cc1 | -25.3% | – | 0.411 µM [falling, full curve, poor fit]
48 | CCc1ccc(N=CC2=C(O)CC(c3ccco3)CC2=O)cc1 (stereo unspecified) | -18.4% | – | –
49 | CCN(CC)S(=O)(=O)c1ccc(C(=O)N2CCN(CCN3C(=O)c4cccc5cccc(c45)C3=O)CC2)cc1 | 48.1% | – | 0.00461 µM [rising, full curve, poor fit]
50 | CC(=O)Nc1cccc(NC(=O)CSc2nnc(Cc3cccn3C)n2-c2ccc(F)cc2)c1 | – | 6.51 µM [rising, single point] | 6.51 µM [rising, single point]
51 | N#CCOC(=O)C1CSC2(c3ccc(Br)cc3)CCC(=O)N12 (stereo unspecified) | 62.6% | – | –
52 | CC(C)Cn1c(N)c(C(=O)COC(=O)CCc2nc3ccccc3s2)c(=O)n(C)c1=O | 16.6% | 3.66 µM [rising, single point] | 0.82 µM [rising, full curve, poor fit]
53 | O=C(Nc1ccc2nc3n(c(=O)c2c1)CCCCC3)C(=O)N1CCN(c2ccccc2F)CC1 | 16.9% | – | –
54 | CCc1cccc(C)c1NC(=O)C1CCCN(S(C)(=O)=O)C1 (stereo unspecified) | 4.67% | 3.26 µM [rising, full curve] | –
55 | O=C(NCC1CCCO1)c1cccc(-n2cnnn2)c1 (stereo unspecified) | 6.93% | 0.13 µM [falling, full curve, poor fit] | –
56 | Cc1ccc(/C=C2/SC(=S)N(CCC(=O)NCCCN3CCOCC3)C2=O)cc1 | 5.82% | 3.26 µM [rising, full curve, poor fit] | –
57 | CCO[C@@H]1OC(C(=O)NCc2nc3ccccc3[nH]2)=C[C@H](c2cn(C(C)=O)c3ccccc23)[C@H]1CCCO | -34.1% | – | 18.4 µM [falling, single point]
58 | O=C1CCCC(c2ccccc2)N1 (stereo unspecified) | 9.14% | 16.4 µM [falling, partial curve, poor fit] | –
